From PMC6877644

Experiments:
[1] = target: T1, FLAG-JIL-1 (D. melanogaster) (UniProt Q9V3I5); assay: co-IP; extracts of Sf21 cells co-expressing FLAG-JIL-1 (or its C-terminal deletion mutants) and untagged JASPer (or its deletion mutants); IP with α-FLAG beads; western blot with α-JIL-1 and α-JASPer
T1 sequence: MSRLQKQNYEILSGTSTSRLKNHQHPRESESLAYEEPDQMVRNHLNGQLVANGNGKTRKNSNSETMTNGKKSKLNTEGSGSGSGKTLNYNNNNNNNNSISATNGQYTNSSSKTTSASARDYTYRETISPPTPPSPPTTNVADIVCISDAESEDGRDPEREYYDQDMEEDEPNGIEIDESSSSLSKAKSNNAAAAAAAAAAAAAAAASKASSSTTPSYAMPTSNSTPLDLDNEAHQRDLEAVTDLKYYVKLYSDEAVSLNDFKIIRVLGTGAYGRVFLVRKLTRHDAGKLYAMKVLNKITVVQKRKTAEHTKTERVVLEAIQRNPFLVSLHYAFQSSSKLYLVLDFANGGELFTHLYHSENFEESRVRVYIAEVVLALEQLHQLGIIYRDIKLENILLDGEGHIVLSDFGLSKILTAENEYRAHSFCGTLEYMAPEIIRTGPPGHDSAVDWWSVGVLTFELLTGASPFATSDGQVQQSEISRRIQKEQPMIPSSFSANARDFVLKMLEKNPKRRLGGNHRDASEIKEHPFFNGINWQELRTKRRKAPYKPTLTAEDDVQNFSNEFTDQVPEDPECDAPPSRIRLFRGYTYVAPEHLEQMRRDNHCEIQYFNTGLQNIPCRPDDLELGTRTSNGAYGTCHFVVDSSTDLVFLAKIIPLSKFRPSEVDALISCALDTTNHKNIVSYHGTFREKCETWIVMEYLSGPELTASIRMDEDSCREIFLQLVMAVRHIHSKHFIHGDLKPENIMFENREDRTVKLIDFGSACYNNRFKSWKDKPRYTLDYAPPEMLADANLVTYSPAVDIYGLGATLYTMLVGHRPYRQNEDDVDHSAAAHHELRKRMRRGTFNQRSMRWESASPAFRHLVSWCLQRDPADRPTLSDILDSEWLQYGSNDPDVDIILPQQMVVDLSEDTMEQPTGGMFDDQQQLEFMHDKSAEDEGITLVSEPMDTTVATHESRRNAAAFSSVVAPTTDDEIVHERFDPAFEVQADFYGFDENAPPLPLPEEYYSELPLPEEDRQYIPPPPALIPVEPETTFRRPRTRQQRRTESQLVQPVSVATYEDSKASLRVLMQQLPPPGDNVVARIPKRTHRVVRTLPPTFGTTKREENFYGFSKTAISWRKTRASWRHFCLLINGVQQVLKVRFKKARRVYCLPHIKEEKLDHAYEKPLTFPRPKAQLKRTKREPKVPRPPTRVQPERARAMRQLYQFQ

[2] = target: T1, FLAG-JIL-1 (D. melanogaster); assay: co-IP; Sf21 extracts with JJ-complex (FLAG-JIL-1/untagged JASPer) and with FLAG-MSL1/untagged MSL2 and FLAG-MSL3 mixed to similar concentrations; IP with antibodies specific for the bait (MSL1 or JIL-1)
[3] = target: T1, FLAG-JIL-1 (D. melanogaster); assay: co-purification by FLAG-tag affinity chromatography; FLAG-JIL-1 and untagged JASPer co-expressed in Sf21 (baculovirus dual expression), bound to FLAG-M2 beads, washed with 1 M NaCl, eluted with FLAG peptide; SDS-PAGE with Coomassie

binding [1] | binding [2] | binding [3] | Substance
no binding |  |  | JASPer-ΔLEDGF (D. melanogaster)
binds | binds | binds | untagged JASPer (D. melanogaster)

No constants are given. Whether binding was seen depends on the method and setting. In cells and extracts the contact can be indirect. Binding calls can cover weak binding; strength is not graded here. Tags and fused reporters may be left off the sequences shown.
